Measured values from publication PMC8599806.

Amino acid sequences for entries named in this document (tags omitted).
UniProt O60934: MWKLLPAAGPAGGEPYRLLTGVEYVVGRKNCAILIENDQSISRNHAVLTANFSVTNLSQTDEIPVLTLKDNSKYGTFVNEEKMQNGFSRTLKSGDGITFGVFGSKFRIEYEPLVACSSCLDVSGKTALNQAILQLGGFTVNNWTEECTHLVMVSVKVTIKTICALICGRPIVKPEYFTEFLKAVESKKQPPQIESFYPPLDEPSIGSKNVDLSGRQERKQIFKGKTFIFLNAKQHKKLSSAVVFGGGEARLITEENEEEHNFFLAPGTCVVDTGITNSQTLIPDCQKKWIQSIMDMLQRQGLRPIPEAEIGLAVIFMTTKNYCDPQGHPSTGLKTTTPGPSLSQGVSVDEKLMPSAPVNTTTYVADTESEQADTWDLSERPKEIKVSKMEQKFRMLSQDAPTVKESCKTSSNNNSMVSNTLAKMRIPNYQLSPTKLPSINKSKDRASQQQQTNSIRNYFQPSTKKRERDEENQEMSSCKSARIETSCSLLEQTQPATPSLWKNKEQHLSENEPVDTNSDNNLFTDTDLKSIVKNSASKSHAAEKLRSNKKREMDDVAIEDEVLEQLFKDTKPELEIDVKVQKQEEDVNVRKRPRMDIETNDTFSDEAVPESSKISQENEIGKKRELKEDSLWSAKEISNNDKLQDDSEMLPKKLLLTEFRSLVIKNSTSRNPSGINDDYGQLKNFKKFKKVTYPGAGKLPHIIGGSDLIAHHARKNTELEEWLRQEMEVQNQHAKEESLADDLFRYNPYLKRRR
UniProt Q99873: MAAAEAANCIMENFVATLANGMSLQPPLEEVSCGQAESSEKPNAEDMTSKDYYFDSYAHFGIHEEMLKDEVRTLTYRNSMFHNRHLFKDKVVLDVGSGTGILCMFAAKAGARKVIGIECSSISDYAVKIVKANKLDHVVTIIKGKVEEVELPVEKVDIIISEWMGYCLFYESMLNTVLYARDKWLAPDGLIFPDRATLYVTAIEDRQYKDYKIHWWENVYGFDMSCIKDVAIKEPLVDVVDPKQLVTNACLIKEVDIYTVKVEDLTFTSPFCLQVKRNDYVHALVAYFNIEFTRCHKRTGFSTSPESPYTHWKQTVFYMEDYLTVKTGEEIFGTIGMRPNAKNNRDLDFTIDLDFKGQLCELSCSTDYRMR
UniProt Q92878: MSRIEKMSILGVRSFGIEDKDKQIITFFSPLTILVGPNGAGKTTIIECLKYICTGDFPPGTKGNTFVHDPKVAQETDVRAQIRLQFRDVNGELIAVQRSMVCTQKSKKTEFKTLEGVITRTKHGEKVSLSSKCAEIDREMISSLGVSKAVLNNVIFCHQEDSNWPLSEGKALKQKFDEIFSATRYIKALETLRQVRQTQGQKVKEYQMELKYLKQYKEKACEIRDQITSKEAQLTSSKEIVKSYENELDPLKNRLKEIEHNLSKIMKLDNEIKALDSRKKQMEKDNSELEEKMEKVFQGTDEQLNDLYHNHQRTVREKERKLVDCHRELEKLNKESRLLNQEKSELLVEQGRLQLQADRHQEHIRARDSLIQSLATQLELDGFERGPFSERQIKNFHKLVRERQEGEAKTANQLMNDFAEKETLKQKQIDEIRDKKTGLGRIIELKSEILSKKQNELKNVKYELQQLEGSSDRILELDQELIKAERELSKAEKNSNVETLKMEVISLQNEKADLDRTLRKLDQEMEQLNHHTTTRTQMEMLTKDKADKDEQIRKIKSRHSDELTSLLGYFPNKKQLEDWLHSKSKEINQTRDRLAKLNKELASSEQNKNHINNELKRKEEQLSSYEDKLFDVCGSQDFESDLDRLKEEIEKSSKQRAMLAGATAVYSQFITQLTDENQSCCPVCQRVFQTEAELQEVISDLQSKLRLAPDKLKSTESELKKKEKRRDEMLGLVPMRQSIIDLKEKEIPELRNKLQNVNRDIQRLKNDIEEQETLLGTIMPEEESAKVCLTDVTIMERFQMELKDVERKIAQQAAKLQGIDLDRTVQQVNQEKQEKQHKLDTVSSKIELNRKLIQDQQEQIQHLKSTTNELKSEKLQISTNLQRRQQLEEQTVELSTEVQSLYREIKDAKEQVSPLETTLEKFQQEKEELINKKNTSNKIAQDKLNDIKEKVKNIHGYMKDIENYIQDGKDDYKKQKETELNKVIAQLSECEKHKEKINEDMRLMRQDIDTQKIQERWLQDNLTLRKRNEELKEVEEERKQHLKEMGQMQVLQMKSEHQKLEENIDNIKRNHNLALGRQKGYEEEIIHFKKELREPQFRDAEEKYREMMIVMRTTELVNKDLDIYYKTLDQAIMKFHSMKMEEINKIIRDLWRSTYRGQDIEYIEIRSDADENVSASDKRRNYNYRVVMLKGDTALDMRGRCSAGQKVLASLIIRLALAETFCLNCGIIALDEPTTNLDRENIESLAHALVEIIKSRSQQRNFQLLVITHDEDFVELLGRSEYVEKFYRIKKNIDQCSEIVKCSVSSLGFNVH
UniProt Q06609: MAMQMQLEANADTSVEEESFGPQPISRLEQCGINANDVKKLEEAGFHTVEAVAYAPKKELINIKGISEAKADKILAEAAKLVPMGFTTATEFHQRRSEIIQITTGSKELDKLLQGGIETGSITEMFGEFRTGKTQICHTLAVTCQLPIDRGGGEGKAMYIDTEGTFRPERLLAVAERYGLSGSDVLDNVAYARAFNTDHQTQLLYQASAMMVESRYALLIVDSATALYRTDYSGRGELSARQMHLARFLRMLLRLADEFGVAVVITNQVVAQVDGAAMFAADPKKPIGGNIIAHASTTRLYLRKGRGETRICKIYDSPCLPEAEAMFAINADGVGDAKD
UniProt P46063: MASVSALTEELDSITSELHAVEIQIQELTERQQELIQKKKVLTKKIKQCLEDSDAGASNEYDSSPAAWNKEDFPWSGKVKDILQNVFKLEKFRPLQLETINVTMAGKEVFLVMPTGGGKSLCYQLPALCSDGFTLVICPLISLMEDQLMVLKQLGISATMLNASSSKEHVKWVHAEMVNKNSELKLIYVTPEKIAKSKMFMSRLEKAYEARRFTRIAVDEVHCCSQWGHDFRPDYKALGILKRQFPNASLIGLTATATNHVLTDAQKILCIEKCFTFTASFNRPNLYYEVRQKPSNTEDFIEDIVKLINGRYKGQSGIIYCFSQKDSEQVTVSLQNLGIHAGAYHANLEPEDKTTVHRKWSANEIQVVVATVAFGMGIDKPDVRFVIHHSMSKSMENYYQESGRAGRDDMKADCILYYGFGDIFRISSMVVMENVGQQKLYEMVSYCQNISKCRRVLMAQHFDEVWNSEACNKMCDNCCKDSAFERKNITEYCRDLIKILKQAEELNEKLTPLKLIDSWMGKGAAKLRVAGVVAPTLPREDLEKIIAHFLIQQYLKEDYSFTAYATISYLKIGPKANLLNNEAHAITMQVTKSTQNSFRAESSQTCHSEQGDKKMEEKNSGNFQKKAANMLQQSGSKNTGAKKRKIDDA

Target: T1, GFP-Flag-tagged ID3 (inhibitor of DNA-binding 3), wild type (human) (UniProt Q02535)
T1 sequence: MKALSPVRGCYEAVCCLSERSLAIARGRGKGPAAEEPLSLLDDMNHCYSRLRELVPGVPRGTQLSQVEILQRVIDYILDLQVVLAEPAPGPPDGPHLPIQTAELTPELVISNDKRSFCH
Assay: affinity purification with mass spectrometry; Flag-ID3 immunoprecipitated with anti-Flag magnetic beads from nuclear lysates (benzonase treated, 300 mM NaCl extraction buffer) of ID3-KO U2OS cells expressing GFP-Flag-ID3 or empty vector; untreated, 15 min or 1 h after 10 Gy; on-bead digestion, label-free quantitative mass spectrometry

Row | Substance | binding
1 | NBS1 (from UniProt O60934 1-754) | binds
2 | PRMT1 (from UniProt Q99873 1-371) | binds
3 | RAD50 (from UniProt Q92878 1-1312) | binds
4 | RAD51 (from UniProt Q06609 1-339) | no binding
5 | RECQL helicase (from UniProt P46063 1-649) | binds

No constants are given. Whether binding was seen depends on the method and setting. Binding seen in cells or lysates may run through a third protein. These calls come from enrichment with a bait or labelling near it, and not all partners need be listed. No binding means not detected with the bait. Where a sequence is shown, tags or fusion partners need not be part of it.
